This is one part of the list.

The chains behind the UniProt entries cited, without tags or fusion partners. Where a name states a change or a piece, a line headed by the entry shows the natural chain unless it says otherwise.
UniProt O60331: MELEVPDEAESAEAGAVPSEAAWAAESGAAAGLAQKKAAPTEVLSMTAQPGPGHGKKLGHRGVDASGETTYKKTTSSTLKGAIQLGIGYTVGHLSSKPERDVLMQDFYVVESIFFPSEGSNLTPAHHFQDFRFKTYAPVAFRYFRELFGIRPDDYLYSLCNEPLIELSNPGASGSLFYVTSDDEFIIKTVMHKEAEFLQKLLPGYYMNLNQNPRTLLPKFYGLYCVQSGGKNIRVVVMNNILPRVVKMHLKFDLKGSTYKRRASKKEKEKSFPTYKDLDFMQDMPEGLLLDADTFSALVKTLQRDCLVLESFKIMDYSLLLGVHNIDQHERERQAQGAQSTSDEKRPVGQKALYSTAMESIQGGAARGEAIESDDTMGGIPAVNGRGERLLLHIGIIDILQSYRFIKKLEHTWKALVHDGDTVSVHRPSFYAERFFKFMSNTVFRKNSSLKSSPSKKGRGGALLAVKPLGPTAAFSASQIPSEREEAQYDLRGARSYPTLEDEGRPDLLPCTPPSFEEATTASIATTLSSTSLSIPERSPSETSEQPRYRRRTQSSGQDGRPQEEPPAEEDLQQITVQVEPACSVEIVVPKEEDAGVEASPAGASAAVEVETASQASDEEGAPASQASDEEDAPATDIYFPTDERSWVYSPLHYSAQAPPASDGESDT
UniProt Q8N2A8: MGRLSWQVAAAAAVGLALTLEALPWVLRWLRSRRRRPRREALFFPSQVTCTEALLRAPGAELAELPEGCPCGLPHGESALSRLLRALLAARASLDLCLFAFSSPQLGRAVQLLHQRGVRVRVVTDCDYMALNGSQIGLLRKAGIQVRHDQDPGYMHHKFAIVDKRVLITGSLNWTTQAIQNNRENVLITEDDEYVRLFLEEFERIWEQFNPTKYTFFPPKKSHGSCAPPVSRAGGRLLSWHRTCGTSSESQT
UniProt O43175: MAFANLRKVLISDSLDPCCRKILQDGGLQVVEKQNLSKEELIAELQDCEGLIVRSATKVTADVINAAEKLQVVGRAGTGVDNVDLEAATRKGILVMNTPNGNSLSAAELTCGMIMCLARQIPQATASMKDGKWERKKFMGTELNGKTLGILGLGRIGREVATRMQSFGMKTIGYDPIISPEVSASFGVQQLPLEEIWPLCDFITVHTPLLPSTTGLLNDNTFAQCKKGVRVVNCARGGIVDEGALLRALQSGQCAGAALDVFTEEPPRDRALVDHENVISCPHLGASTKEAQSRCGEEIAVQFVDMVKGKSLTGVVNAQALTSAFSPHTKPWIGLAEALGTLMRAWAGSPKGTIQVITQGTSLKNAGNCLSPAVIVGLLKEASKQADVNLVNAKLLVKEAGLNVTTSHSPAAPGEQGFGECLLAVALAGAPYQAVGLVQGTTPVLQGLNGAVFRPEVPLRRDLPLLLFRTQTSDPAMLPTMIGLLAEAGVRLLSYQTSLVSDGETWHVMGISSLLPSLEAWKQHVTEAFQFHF
UniProt Q9HAU0: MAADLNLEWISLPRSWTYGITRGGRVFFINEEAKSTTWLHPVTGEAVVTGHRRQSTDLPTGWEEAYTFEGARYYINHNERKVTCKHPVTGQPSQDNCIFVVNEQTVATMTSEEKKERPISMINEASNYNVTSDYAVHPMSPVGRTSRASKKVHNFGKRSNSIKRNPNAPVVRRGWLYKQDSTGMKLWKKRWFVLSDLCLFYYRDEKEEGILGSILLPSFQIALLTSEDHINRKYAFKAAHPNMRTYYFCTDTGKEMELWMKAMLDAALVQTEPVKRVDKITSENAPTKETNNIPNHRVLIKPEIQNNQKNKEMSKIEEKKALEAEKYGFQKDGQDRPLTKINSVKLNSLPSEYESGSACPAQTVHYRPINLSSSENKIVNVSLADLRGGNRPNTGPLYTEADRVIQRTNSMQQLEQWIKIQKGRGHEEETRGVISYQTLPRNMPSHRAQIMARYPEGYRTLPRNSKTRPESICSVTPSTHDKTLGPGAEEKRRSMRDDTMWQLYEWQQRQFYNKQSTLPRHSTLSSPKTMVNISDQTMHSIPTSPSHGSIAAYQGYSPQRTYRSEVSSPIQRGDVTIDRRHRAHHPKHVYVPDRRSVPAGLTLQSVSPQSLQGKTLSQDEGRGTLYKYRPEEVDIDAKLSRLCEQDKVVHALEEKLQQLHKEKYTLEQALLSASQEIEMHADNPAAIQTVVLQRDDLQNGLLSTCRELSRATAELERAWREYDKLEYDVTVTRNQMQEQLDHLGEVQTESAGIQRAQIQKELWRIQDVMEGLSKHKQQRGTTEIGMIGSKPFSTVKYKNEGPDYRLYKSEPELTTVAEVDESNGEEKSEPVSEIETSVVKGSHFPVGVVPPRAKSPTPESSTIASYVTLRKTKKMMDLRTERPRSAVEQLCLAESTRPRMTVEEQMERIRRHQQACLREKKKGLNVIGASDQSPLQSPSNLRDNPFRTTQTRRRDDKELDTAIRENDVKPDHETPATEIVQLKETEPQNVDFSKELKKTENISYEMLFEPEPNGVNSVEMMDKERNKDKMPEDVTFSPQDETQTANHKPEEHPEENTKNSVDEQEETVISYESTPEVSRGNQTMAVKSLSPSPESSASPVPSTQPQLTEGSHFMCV
UniProt P42338: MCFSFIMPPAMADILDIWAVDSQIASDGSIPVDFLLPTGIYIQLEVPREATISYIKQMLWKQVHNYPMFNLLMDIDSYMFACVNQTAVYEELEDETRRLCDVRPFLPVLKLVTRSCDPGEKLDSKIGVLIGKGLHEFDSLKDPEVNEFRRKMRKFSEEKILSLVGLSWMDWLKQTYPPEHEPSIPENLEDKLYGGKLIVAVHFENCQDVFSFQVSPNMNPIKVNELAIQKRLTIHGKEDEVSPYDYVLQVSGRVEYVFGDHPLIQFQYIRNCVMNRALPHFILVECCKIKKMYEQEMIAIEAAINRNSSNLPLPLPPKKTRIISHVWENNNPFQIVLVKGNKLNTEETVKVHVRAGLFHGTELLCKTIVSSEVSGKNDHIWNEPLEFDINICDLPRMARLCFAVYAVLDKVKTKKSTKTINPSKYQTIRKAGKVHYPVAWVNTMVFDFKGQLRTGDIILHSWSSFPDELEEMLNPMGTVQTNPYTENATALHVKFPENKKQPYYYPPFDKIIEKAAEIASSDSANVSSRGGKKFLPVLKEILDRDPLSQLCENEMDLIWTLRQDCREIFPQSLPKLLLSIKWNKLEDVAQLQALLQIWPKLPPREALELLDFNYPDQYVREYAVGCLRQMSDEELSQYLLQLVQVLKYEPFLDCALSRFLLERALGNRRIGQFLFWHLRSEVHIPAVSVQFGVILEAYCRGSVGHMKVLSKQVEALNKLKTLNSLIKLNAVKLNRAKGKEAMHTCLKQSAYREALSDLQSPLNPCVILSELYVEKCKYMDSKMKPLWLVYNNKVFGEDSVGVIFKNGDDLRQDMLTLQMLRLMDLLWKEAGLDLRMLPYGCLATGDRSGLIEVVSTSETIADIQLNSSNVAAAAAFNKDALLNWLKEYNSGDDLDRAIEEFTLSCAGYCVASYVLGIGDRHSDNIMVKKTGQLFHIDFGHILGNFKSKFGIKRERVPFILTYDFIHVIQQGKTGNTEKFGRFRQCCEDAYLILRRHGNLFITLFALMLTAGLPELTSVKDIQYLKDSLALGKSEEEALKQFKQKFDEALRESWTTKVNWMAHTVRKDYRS
UniProt Q8IXK0: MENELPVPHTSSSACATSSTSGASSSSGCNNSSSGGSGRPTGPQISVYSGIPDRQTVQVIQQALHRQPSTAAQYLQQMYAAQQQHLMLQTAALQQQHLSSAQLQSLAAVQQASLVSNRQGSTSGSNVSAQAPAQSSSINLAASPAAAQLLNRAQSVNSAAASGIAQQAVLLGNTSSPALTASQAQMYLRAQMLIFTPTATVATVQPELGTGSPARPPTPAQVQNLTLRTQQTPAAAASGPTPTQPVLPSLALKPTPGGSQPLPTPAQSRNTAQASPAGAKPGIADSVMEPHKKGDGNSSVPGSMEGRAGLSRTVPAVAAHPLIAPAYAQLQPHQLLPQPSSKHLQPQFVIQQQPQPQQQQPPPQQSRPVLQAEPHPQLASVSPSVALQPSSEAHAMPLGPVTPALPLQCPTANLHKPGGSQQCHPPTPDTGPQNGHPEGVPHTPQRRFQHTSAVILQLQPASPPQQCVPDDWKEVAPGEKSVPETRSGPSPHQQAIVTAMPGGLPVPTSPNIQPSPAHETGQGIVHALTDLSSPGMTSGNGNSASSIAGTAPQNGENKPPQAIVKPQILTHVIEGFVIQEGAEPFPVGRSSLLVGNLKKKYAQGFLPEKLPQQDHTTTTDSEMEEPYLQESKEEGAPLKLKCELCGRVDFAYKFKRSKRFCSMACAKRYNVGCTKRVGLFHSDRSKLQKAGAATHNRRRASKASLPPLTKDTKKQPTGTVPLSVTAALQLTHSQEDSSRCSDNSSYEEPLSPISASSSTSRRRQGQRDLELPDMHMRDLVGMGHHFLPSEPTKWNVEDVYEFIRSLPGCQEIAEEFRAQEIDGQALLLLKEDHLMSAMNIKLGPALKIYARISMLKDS
UniProt P46020: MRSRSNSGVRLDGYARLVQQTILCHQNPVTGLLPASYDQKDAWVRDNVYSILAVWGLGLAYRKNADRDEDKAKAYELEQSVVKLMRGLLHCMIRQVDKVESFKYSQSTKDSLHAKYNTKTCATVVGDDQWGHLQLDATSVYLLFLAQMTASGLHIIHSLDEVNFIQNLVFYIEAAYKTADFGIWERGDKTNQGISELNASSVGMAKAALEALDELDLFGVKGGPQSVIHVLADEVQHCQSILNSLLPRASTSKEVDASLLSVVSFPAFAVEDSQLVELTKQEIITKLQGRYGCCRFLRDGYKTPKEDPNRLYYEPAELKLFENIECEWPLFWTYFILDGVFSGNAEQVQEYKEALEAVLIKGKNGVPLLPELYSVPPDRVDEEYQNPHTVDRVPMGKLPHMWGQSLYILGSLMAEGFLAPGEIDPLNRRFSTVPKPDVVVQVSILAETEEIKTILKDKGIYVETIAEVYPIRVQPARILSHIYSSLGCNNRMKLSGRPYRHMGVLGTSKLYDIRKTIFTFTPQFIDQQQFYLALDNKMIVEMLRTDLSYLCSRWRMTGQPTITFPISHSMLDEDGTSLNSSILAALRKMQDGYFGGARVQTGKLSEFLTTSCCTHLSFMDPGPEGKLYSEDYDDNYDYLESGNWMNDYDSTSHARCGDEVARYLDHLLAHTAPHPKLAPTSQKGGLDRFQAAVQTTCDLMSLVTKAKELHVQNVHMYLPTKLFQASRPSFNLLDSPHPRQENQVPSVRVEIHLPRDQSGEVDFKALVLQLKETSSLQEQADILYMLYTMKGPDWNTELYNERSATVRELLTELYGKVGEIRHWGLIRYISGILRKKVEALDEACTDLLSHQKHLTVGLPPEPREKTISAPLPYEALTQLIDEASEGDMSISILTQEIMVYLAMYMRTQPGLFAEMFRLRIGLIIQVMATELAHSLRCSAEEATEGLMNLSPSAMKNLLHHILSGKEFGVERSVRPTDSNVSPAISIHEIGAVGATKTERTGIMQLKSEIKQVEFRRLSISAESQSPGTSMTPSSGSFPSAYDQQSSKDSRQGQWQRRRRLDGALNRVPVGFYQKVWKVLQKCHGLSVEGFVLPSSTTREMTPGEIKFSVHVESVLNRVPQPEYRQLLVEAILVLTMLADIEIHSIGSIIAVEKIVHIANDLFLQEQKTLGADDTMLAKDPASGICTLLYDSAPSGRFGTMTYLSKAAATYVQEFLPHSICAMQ
UniProt Q8WXW3: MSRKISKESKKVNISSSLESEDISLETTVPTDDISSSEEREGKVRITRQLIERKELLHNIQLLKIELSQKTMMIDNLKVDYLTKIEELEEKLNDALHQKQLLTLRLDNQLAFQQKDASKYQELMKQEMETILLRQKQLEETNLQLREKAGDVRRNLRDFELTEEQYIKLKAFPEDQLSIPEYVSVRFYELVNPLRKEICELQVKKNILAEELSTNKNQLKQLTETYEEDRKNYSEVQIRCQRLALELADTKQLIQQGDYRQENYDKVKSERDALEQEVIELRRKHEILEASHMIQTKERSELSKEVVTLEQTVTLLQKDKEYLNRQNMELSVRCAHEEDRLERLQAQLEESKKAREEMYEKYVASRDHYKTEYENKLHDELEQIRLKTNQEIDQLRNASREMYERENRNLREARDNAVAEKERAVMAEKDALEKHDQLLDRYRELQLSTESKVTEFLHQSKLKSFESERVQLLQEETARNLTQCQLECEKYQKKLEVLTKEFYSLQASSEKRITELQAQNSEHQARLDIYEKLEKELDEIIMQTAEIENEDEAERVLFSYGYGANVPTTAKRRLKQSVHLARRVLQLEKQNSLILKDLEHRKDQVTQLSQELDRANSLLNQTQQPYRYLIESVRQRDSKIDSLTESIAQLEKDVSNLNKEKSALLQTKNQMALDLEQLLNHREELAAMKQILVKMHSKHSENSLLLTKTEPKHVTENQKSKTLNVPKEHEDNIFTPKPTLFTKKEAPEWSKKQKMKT

For 29 targets, log2 fold change results are on record in the supplement of paper PMC10849652.

Holding throughout (experiment): log2 fold change, soluble protein after heating vs DMSO (PISA); higher = thermal stabilisation; K562 cells, 10 uM, 30 min; active = over 0.2 and 3.5 SD of the protein, either way, in both replicates (recomputed)
Compound in test [1]: C1=CC=C(C=C1)[C@H](COC2=CC3=C(C=C2)NC(=O)N3)NC(=O)C4=CC=CN(C4=O)CC5=CC(=C(C=C5)F)F
An outline of the steps:
(§1)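 K562 cells at 2×10^6 cells/mL were treated with 10 μM compound for 30 min. Aliquots were heated for 3 min across 48°C-58°C, pooled, and extracted in PBS with 0.5% NP-40 at 4°C; soluble protein was the supernatant after 21,000xg for 90 min. Soluble protein was quantified by TMTpro 16plex LC-MS/MS with channel sums equalised, and reported as log2 fold change in thermal stability against DMSO controls, with values from duplicates.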

Compound in test [2]: Cc1sc2c(c1C)C(c1ccc(Cl)cc1)=N[C@@H](CC(=O)OC(C)(C)C)c1nnc(C)n1-2
A digest of the protocol: as §1

Compound in test [3]: CC1=C(SC2=C1C(=N[C@H](C3=NN=C(N32)C)CC(=O)N)C4=CC=C(C=C4)Cl)C
A digest of the protocol: as §1

Compound in test [4]: c1ccc([C@@H]2C[C@H]2NC2CCNCC2)cc1
A digest of the protocol:
as §1

Compound in test [5]: CC1=C2C(=CC=C1)N=C(N(C2=O)C3=CC=CC=C3C)CN4C=NC5=C(N=CN=C54)N
An outline of the steps: as §1

As to PIP5K1C isoform 3 (UniProt O60331), the log2 fold change in test [1] is inactive: 0.046; in test [2], inactive: -0.149.

As to PFN1 (UniProt I3L3D5), the log2 fold change in test [1] is inactive: 0.068; in test [3] it was inactive: -0.069; in test [2], inactive: 0.194; in test [4], inactive: -0.104.

Consider PHF23 (UniProt Q9BUL5), for which the log2 fold change in test [1] was inactive: 0.019; in test [3], inactive: -0.038; in test [5] it was inactive: 0.053; in test [2], inactive: -0.014; in test [4], inactive: 0.052.

On to PEX3 (UniProt P56589), for which the log2 fold change in test [3] is inactive: -0.166; in test [5], inactive: -0.026; in test [2], inactive: 0.012; in test [4], inactive: -0.003.

Take PIGB (UniProt Q92521): the log2 fold change in test [3] is inactive: 0.099; in test [2], inactive: 0.034; in test [4] it was inactive: 0.082.

For PIGU (UniProt Q9H490), the log2 fold change in test [1] is inactive: -0.087; in test [3], inactive: -0.019; in test [5], inactive: -0.026; in test [2], inactive: -0.043; in test [4], inactive: -0.024.

For the target PLEK (UniProt P08567), the log2 fold change in test [5] is inactive: -0.118.

As to PHLPP1 (UniProt O60346), the log2 fold change was inactive: 0.02 in test [3], inactive: 0.092 in test [2] and inactive: 0.023 in test [4].

As to PIGM (UniProt Q9H3S5), the log2 fold change is inactive: -0.022 in test [1], inactive: 0.113 in test [3], inactive: 0.061 in test [5] and inactive: -0.158 in test [4].

For PLD6 (UniProt Q8N2A8), in test [5], the log2 fold change is inactive: 0.072.

For the target PHGDH (UniProt O43175), the log2 fold change in test [1] is inactive: 0.004; in test [3] it was inactive: 0.007; in test [5], inactive: -0.012; in test [2], inactive: -0.001; in test [4] it was inactive: 0.012.

In the case of PHF14 (UniProt O94880), the log2 fold change was inactive: -0.452 in test [5] and inactive: 0.09 in test [2].

For the target PLEKHA5 isoform 6 (UniProt Q9HAU0), the log2 fold change in test [3] is inactive: 0.325; in test [5], inactive: 0.092; in test [2], inactive: 0.229; in test [4], inactive: -0.002.

Turning to PIAS4 (UniProt Q8N2W9), the log2 fold change in test [2] is inactive: 0.129.

For the target PHLDB1 isoform 2 (UniProt Q86UU1), the log2 fold change is inactive: -0.006 in test [1]; inactive: 0.073 in test [3]; inactive: 0.081 in test [5]; inactive: 0.008 in test [2]; inactive: 0.002 in test [4].

On to PGPEP1 (UniProt Q9NXJ5), for which the log2 fold change in test [1] was inactive: -0.072; in test [3] it was inactive: 0.036; in test [5], inactive: -0.485; in test [4] it was inactive: -0.094.

As to PIK3CB (UniProt P42338), the log2 fold change is inactive: -0.068 in test [1]; inactive: 0.014 in test [3]; active: 0.213 in test [5]; inactive: -0.01 in test [2]; inactive: 0.005 in test [4].

Turning to PKLR (UniProt F8W6W2), the log2 fold change in test [1] was inactive: -0.011; in test [5], inactive: -0.191.

Consider PKM isoform 2 (UniProt P14618), for which the log2 fold change was inactive: 0.063 in test [1], inactive: -0.057 in test [5] and inactive: -0.046 in test [2].

Consider PHB (UniProt P35232), for which the log2 fold change in test [1] is inactive: 0.013; in test [3], inactive: 0.055; in test [5] it was inactive: 0.03; in test [2] it was inactive: -0.038; in test [4], inactive: -0.02.

Turning to PHC2 isoform 5 (UniProt Q8IXK0), the log2 fold change in test [1] was inactive: -0.103; in test [3], inactive: -0.21; in test [5] it was inactive: -0.093; in test [4], inactive: 0.267.

Turning to PKHD1 (UniProt P08F94), the log2 fold change in test [5] is inactive: 0.175.

Take PEX26 (UniProt Q7Z412): the log2 fold change in test [3] is inactive: 0.076; in test [5] it was inactive: 0.116; in test [2] it was inactive: 0; in test [4], inactive: 0.023.

In the case of PHKA1 (UniProt P46020), the log2 fold change is inactive: 0.028 in test [1], inactive: -0.078 in test [3], inactive: 0.103 in test [2] and inactive: 0.011 in test [4].

As to PEX5 isoform 4 (UniProt P50542), the log2 fold change in test [3] was inactive: -0.147; in test [5], inactive: 0.043; in test [2] it was inactive: 0.059; in test [4] it was inactive: 0.006.

Regarding PIGN (UniProt O95427), the log2 fold change is inactive: 0.15 in test [1], inactive: -0.064 in test [3], inactive: 0.071 in test [2] and inactive: -0.101 in test [4].

In the case of PIBF1 (UniProt Q8WXW3), the log2 fold change was inactive: -0.07 in test [1] and inactive: 0.015 in test [2].

Regarding PIGW (UniProt Q7Z7B1), the values for the log2 fold change in test [1], in test [5] and in test [2] were inactive: -0.073, inactive: 0.046 and inactive: -0.067, respectively.

With PGD (UniProt K7EM49), the log2 fold change in test [1] was inactive: 0.032; in test [5] it was inactive: 0.124.
